The assay concerns the target Triosephosphate isomerase 1 (TPI1) (human (endogenous in MDA-MB-231 and T47D)) (UniProt P60174). The assay can be described thus: affinity purification with mass spectrometry; IP of TPI1 (IgG as control) from MDA-MB-231 lysate, silver staining, bands subjected to mass spectrometry.

Results are given in words; binding and its absence hold for the method and conditions named. Binding seen in cells or lysates may run through a third protein. A yes stands for co-enrichment or nearness to the bait. Other partners may have been found.

Take “Sequestosome-1 (SQSTM1)/P62 (from UniProt Q13501 1-440)”: the binding entry is “binds”.

Source of the values: paper PMC9066866.
